PubChem BioAssay AID1508597, Cure First – 2020

Purpose: 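Survival screen with siRNA in ovarian cancer cells derived from patients, with or without rucaparib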 (primary screen)
Cell system: human ovarian carcinoma lines grown from tumours: OCI-P5x (papillary serous) and OCI-C5x (clear cell)
Knock-down reagent: siRNA pool against human genes, 1.25 pmol siRNA per well
Timing: 72 h or 96 h, depending on the cell culture
Treatment: rucaparib 20 µM (about IC30) or vehicle, present until read-out
Rucaparib or vehicle: Rucaparib
Cell line: OCI-C5x (clear cell)
Read-out: 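ATP luminescence measured at 72 or 96 h according to the culture, then normalised and expressed as percent viability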
Direction: viability, normalised: higher = more viable cells remaining
Hit rule: 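Active when normalised viability falls below 80 percent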
Calls: active = viability under 80%; inactive = viability 80% or more
This is a random part of the about 2,100 reagents, in one setting of the screen. 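Calls flag viability under 80% in either arm, not effects specific to rucaparib; the reference for percent is not stated.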 Unmarked entries are inactive. Some reagents were tested in more than one well and are listed for each. Not given: the 100% reference.

For MED26, technical replicate 1, the values are viability, normalised (%) = 21.7 (active).
MED26, technical replicate 2 showed viability, normalised (%) = 19.8 (active).
With MED26, technical replicate 3 the deposit lists viability, normalised (%) = 28.9 (active).
TYMS, technical replicate 1 gave viability, normalised (%) = 63.9 (active).
With TYMS, technical replicate 2 the deposit lists viability, normalised (%) = 65.1 (active).
TYMS, technical replicate 3 gave viability, normalised (%) = 68.9 (active).
PHF21A, technical replicate 1 scored viability, normalised (%) = 48.4 (active).
PHF21A, technical replicate 2 showed viability, normalised (%) = 51.4 (active).
PHF21A, technical replicate 3 scored viability, normalised (%) = 33 (active).
DHX40, technical replicate 1 showed viability, normalised (%) = 38.9 (active).
DHX40, technical replicate 2 showed viability, normalised (%) = 32.9 (active).
For DHX40, technical replicate 3, the values are viability, normalised (%) = 30.7 (active).
With PRDM1, technical replicate 1, the entry reads viability, normalised (%) = 39.9 (active).
With PRDM1, technical replicate 2, the values are viability, normalised (%) = 37.3 (active).
PRDM1, technical replicate 3 gave viability, normalised (%) = 29.2 (active).

Copied from the list.
Result of PHF21A, technical replicate 1 in “viability, normalised (%)”: 48.4 (active)
For “viability, normalised (%)”, TYMS, technical replicate 2 is entered as 65.1 (active)
For “viability, normalised (%)”, MED26, technical replicate 1 is entered as 21.7 (active)

More entries follow:
FBXO11, technical replicate 1 showed viability, normalised (%) = 31.1 (active).
For FBXO11, technical replicate 2, the entry reads viability, normalised (%) = 31.3 (active).
FBXO11, technical replicate 3 gave viability, normalised (%) = 24.1 (active).
DIDO1, technical replicate 1 scored viability, normalised (%) = 32.3 (active).
For DIDO1, technical replicate 2, the values are viability, normalised (%) = 31.9 (active).
DIDO1, technical replicate 3 scored viability, normalised (%) = 29.7 (active).
For ZFYVE9, technical replicate 1, the entry reads viability, normalised (%) = 54.8 (active).
For ZFYVE9, technical replicate 2, the values are viability, normalised (%) = 60.5 (active).
ZFYVE9, technical replicate 3 scored viability, normalised (%) = 57 (active).
HIRA, technical replicate 1 showed viability, normalised (%) = 65.2 (active).
For HIRA, technical replicate 2, the entry reads viability, normalised (%) = 56.8 (active).
For HIRA, technical replicate 3, the values are viability, normalised (%) = 55.7 (active).
PER1, technical replicate 1 gave viability, normalised (%) = 32.6 (active).
PER1, technical replicate 1 showed viability, normalised (%) = 44.4 (active).
With PER1, technical replicate 2, the entry reads viability, normalised (%) = 40.1 (active).
PER1, technical replicate 2 showed viability, normalised (%) = 34.1 (active).
For PER1, technical replicate 3 the deposit lists viability, normalised (%) = 36.6 (active).
For PER1, technical replicate 3, the entry reads viability, normalised (%) = 47.6 (active).
